Patent US9278925B2, “Substituted 3-(biphenyl-3-yl)-4-hydroxy-8-methoxy-1-azaspiro[4.5]dec-3-en-2-one” (BAYER INTELLECTUAL PROPERTY GMBH, priority 2011, dated 2016)
For part of its entries the source gives two or more results. The other results are left out here. An entry can have further records. Results that share an entry differ, and nothing given here explains why; dose, time, organism, isomer or construct need not be as stated for each record.

System: human ACC1
Assay: Human ACC1 enzyme assay (ADP-Glo)
Type: biochemical
Conditions: pairwise, same dilution series

SMILES: CO[C@]1(C)CC[C@]2(CC1)NC(=O)C(c1cc(-c3ccc(Cl)cc3)ccc1C)=C2O [Example V.1-a, (5r,8r)-3-(4′-Chloro-4-methylbiphenyl-3-yl)-4-hydroxy-8-methoxy-8-methyl-1-azaspiro[4.5]dec-3-en-2-one]
- Ratio IC50s ACC2/ACC1 (respective measurement): 35 and 36

SMILES: CO[C@]1(C)CC[C@]2(CC1)NC(=O)C(c1cc(-c3ccc(Cl)c(F)c3)ccc1C)=C2O [Example V.2-a, (5r,8r)-3-(4′-Chloro-3′-fluoro-4-methylbiphenyl-3-yl)-4-hydroxy-8-methoxy-8-methyl-1-azaspiro[4.5]dec-3-en-2-one]
- Ratio IC50s ACC2/ACC1 (respective measurement): 44.5, 24.8, 38.5
- Ratio IC50s ACC2/ACC1 (respective measurement) (listed as V.4-a): 44.5, 24.8, 38.5
